Data from patent US20230312741A1.
Substitutions are numbered along the chain they refer to. These are yes or no findings as the source states them, for the method shown. Some results given as binding are weak or reduced against the parent protein; the word gives no strength. Values belong to the binder of their own block, whether it stands above or below them.

Experiments:
Experiment in all cases: flow cytometry, GS-CHO cells with CD73 mutant
[1] = target: T1, CD73 mutant H103A/W327A (human) (UniProt P21589)
T1 sequence: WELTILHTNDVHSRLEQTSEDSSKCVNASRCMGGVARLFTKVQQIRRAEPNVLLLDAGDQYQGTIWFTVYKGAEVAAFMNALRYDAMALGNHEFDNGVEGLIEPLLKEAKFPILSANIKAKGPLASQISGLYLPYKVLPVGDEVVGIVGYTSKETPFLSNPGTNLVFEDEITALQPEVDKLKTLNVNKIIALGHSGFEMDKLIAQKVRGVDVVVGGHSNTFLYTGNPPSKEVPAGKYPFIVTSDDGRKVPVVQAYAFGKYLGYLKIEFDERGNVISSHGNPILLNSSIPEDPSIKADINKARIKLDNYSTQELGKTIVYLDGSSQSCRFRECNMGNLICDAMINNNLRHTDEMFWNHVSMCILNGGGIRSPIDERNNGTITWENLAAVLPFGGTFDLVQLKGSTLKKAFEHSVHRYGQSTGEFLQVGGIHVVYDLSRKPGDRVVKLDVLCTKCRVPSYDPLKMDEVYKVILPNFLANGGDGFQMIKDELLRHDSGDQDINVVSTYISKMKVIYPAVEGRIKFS

[2] = target: T2, CD73 mutant F65A/H103A (human) (UniProt P21589)
T2 sequence: T1 sequence with F39A, A301W

[3] = target: T3, CD73 mutant F265A/H304A (human) (UniProt P21589)
T3 sequence: T1 sequence with A77H, F239A, H278A, A301W

[4] = target: T4, CD73 mutant E194A/E196A (human) (UniProt P21589)
T4 sequence: T1 sequence with A77H, E168A, E170A, A301W

[5] = target: T5, CD73 mutant Q201A/E203A (human) (UniProt P21589)
T5 sequence: T1 sequence with A77H, Q175A, E177A, A301W

binding [1]: binds
binding [2]: binds
binding [3]: binds
binding [4]: binds
binding [5]: binds
B1: ADI-37505 (antibody, human IgG4 S228P, kappa, F234A L235A, V domains shown)
VH: QVQLVESGGGLVQPGGSLRLSCAASGFTFSNYAMTWVRQAPGKGLEWVSAISGRGTATYYADSVKGRFTISRDNSKNTLYLQMNSLRAEDTAVYYCARGGPYGSGSYWDTFDYWGQGTLVTVSS
VL: EIVMTQSPATLSVSPGERATLSCRASQSVSSNLAWYQQKPGQAPRLLIYGASTRATGIPARFSGSGSGTEFTLTISSLQSEDFAVYYCQQYTNHYTFGGGTKVEIKR

binding [1]: binds
binding [2]: binds
binding [3]: binds
binding [4]: binds
binding [5]: binds
B2: ADI-37506 (antibody, human IgG4 S228P, kappa, F234A L235A, V domains shown)
VH: B1 VH with Q1E, V5L, Y32L, T35S, G55A, A57S
VL: B1 VL
